# Patent US10314877B2, “Method for lymph drainage” (ABOCA S.P.A. SOCIETÀ AGRICOLA, priority 2015, dated 2019)
# System: mice
# Test: Diuretic activity test
# Assay type: in vivo
# Details: 10 mg/kg by gastric probe at t=0, positive control
# Description: The animals were housed in metabolic cages (three mice/cage) and were allowed free access to food and drinking water (commercial oligomineral water). In order to obtain similar physiological states of hydration, gavage of oligomineral water of 2.5% body weight was administered to all groups of animals 2 hours before the experiment.
# The animals were then divided randomly into groups (9 mice/group) in accordance with the following treatment schema:
# 3. Furosemide: 100 microl/mouse of furosemide were administered at 10 mg/kg in oligomineral water by means of gastric probe at t=0 (positive control)
# 4—Goldenrod: 100 microl/mouse of goldenrod extract (200 mg/kg body weight in oligomineral water) were administered by means of gastric probe at t=0
# 5—Orthosiphon: 100 microl/mouse of extract of orthosiphon (200 mg/kg body weight in oligomineral water) were administered a t=0
# 6—Goldenrod: orthosiphon (3:1): 100 microl/mouse of co-extract goldenrod+orthosiphon (200 mg/kg body weight in oligomineral water) were administered by gastric probe at t=0
# In order to assess the diuretic activity of the compounds, samples of urine were collected in graduated cylinders, and the volume thereof was recorded at intervals of 2 h up to a total of 8 hours.
# The urinary excretion, independently of the weight of the animals, was calculated as total diuresis divided by the volume of total liquid administered. […]
smiles,measurement,value
NS(=O)(=O)c1cc(C(=O)O)c(NCc2ccco2)cc1Cl [furosemide],urinary excretion,approximately 3.9 ml
